# Some of the results follow. These are further read-outs of the screen, such as a control signal, another cell line or another target. No call is given for them. Compounds called inactive in the main read-out are mostly missing here. The note in brackets gives the kind of curve behind each potency; many fits are weak.
# Assay: qHTS Assay for Lipid Storage Modulators in Drosophila S3 Cells;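 as to cell number change: cells counted by Cell Tracker Red CMTPX staining in the red channel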
# Settings: BODIPY lipid droplet fluorescence, 18-24 h; for cell number change: measured here: cell count max response, cells fed with added oleic acid
# How it was run: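 Drosophila S3 cells got compounds at several concentrations plus oleic acid (400 uM solution). Laser-scanning cytometry with 488 nm excitation read lipid droplets at 500-530 nm and cells at 575-640 nm. Percent activity was relative to 20 uM Triacsin C.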
# [1] = measured here: lipid fluorescence (Fed channel) AC50, cells fed with added oleic acid
# [2] = measured here: cell number channel AC50, cells fed with added oleic acid
Compound,cell number change [%],AC50 [1],AC50 [2]
CCCc1nnc(SCC(=O)N2C(C)CCCC2C)n1CCCOC (centres undefined),27.4,"2.59 µM [rising, full curve]",–
Cn1cc(Cl)cc(C(=O)Nc2ccccc2)c1=O,16.7,–,–
CCOc1ccc2[nH]c(=O)c(C(c3nnnn3C3CCCCC3)N3CCN(CC)CC3)cc2c1 (centres undefined),-7.74,"0.92 µM [falling, single point]",–
Cc1cc(NC(=O)c2cccc(Cl)c2)n[nH]1,-3.72,"6.51 µM [rising, full curve, poor fit]",–
Cc1c(Cl)c([N+](=O)[O-])nn1Cc1ccc(C(=O)N/N=C\c2ccccn2)o1,31,"23.1 µM [rising, partial curve, poor fit]","0.731 µM [rising, full curve]"
COC(=O)c1ccc(CNC(=O)CSC(C)C(=O)Nc2cc(C)on2)cc1 (centres undefined),-17.5,–,–
COc1ccc(C(=O)COC(=O)c2ccco2)cc1,2.37,"0.58 µM [falling, single point]",–
Clc1ccccc1OCCCCN1CCCCC1,7.09,–,–
CC(NCc1ccc(S(N)(=O)=O)cc1)C(=O)Nc1cc([N+](=O)[O-])ccc1Cl (centres undefined),53.1,–,–
CN(C)Cc1c(O)ccc2c(=O)c(-c3ccccc3Cl)coc12,3.38,"0.517 µM [rising, full curve, poor fit]",–
CCCCc1nc2ccccc2c(=O)n1NC(=O)c1c(O)c2cccc3c2n(c1=O)CCC3,0.708,"0.00461 µM [falling, full curve, poor fit]",–
O=C(Nc1ccc(OC(F)(F)F)cc1)Oc1ccccc1N1CCOCC1,-28.3,"32.6 µM [falling, single point]",–
CCCC1C(c2ccco2)NC(c2ccco2)CC1(C)O (centres undefined),-8.88,–,–
Cc1cccc(N2CC(C(=O)Nc3cccc(S(=O)(=O)N4CCCCC4)c3)CC2=O)c1C (centres undefined),-11.1,"23.1 µM [rising, single point]",–
Cn1c(C(=O)O)cnc1Sc1ncc(C(F)(F)F)cc1Cl,51.3,–,–
O=C(NCc1cccnc1)/C(=C\c1ccc(-c2cccc(Cl)c2)o1)S(=O)(=O)c1ccccc1,-38.8,–,"9.2 µM [falling, single point]"
Cc1cc(O)c(/C=N/Nc2cccc(Cl)c2)c(=O)o1,–,"0.58 µM [falling, full curve]",–
C=CCNC(=O)c1nn2cccnc2c1Cl,9.22,"9.2 µM [rising, partial curve]",–
CCOC(=O)/C(C#N)=C1\Nc2ccccc2N=C1N(CC(C)C)CC(C)C,-83.3,"11.6 µM [falling, partial curve]","9.2 µM [falling, partial curve]"
CC(Oc1ccc(F)cc1)C(=O)Nc1ccc(N2CCOCC2)cc1N1CCOCC1 (centres undefined),14.4,"5.8 µM [rising, partial curve]",–
COC(=O)c1c(C)[nH]c(C(=O)C(C)OC(=O)c2c(C)noc2C)c1C (centres undefined),30.1,"14.6 µM [rising, partial curve, poor fit]","14.6 µM [rising, single point]"

Compound,cell number change [%],AC50 [1],AC50 [2]
Cc1ccc2nc(C)c(C(=O)NN=C3CCN(C)CC3)n2c1,-15.3,"0.259 µM [falling, full curve]","0.58 µM [falling, single point]"
O=C(Nc1ccc(Nc2ccccc2)cc1)Nc1ccccc1Cl,7.8,"29.1 µM [rising, single point]",–
CCOC(=O)C(C(=O)OCC)C(Nc1ccc(Br)cc1)c1ccccc1 (centres undefined),-9.01,"9.2 µM [falling, partial curve, poor fit]",–
O=C(c1cc(-c2cccs2)nc2ccccc12)N1CCN(S(=O)(=O)c2ccccc2)CC1,65.9,–,"4.11 µM [rising, full curve]"
O=C(c1cnn(C(=O)c2ccc(O)cc2)c1)c1ccccc1O,10.5,–,–
Cc1c(N=Cc2ccncc2)c(=O)n(-c2ccccc2)n1C,-6.31,"3.66 µM [falling, single point]",–
CCOC(=O)C(C)Oc1ccc(NC(=O)C(Cl)Cl)cc1 (centres undefined),-4.52,–,–
CS(=O)(=O)c1ccc2nc(NC(=O)Nc3ccccc3F)sc2c1,33,"0.517 µM [rising, full curve, poor fit]",–
CC(Oc1cccc(NC(=O)c2cccs2)c1)C(=O)c1ccccc1 (centres undefined),-46.9,"1.16 µM [falling, full curve]","29.1 µM [falling, single point]"
CN(C(=O)c1cc2n(n1)C(C(F)(F)F)CC(c1ccco1)N2)c1ccccc1 (centres undefined),30.9,"1.3 µM [rising, full curve]","3.26 µM [rising, partial curve]"
NS(=O)(=O)c1ccc(CNC(=O)C(c2ccccc2)c2ccccc2)cc1,-14.3,"0.184 µM [falling, full curve, poor fit]",–
CCC(=O)Nc1nc(-c2ccccc2)nc(SC)c1C(C)=O,0.543,"1.84 µM [rising, partial curve]","1.3 µM [rising, full curve]"
CC(=O)N1CCN(C(=O)c2ccc(NS(=O)(=O)c3ccc4c(c3)OCCO4)cc2)CC1,-131,"5.17 µM [falling, single point]","5.8 µM [falling, partial curve]"
O=C(COC(=O)C12CC3CC(CC(O)(C3)C1)C2)Nc1cccc(Br)c1,19.5,–,–
COc1ccc(-c2cc(C(=O)NCCN3CCOCC3)c3ccccc3n2)cc1OC,6.36,"25.9 µM [rising, partial curve]",–
O=C(COc1ccc(Cl)cc1)NCc1ccncc1,3.01,"6.51 µM [falling, single point]","4.11 µM [falling, partial curve, poor fit]"
CC(C)c1ccc(NC2CCCN(C(=O)c3ccc(N4CCOCC4)cc3)C2)cc1 (centres undefined),1.16,–,"0.58 µM [rising, full curve, poor fit]"
COc1cccc(/C(C)=N/N=C(\C)c2cccc(OC)c2)c1,16.1,–,–
O=C(CCS(=O)(=O)c1ccccc1)Nc1ncc([N+](=O)[O-])s1,–,"4.11 µM [falling, full curve]",–
COc1ccc(C2N(c3ccccn3)C(=O)C3CCCN32)c(OC)c1 (centres undefined),-8.06,"2.59 µM [rising, single point]",–
CCN(c1ccccc1)S(=O)(=O)c1ccc(C(=O)N(CCCN(C)C)c2nc3cc4c(cc3s2)OCO4)cc1,-23.8,"5.8 µM [rising, single point]",–

# 14 of the compounds above, bar-delimited.
Compound | cell number change [%] | AC50 [1] | AC50 [2]
O=C(Nc1ccc(Nc2ccccc2)cc1)Nc1ccccc1Cl | 7.8 | 29.1 µM [rising, single point] | –
CCOC(=O)C(C(=O)OCC)C(Nc1ccc(Br)cc1)c1ccccc1 (centres undefined) | -9.01 | 9.2 µM [falling, partial curve, poor fit] | –
O=C(c1cc(-c2cccs2)nc2ccccc12)N1CCN(S(=O)(=O)c2ccccc2)CC1 | 65.9 | – | 4.11 µM [rising, full curve]
O=C(c1cnn(C(=O)c2ccc(O)cc2)c1)c1ccccc1O | 10.5 | – | –
Cc1c(N=Cc2ccncc2)c(=O)n(-c2ccccc2)n1C | -6.31 | 3.66 µM [falling, single point] | –
CC(Oc1cccc(NC(=O)c2cccs2)c1)C(=O)c1ccccc1 (centres undefined) | -46.9 | 1.16 µM [falling, full curve] | 29.1 µM [falling, single point]
CN(C(=O)c1cc2n(n1)C(C(F)(F)F)CC(c1ccco1)N2)c1ccccc1 (centres undefined) | 30.9 | 1.3 µM [rising, full curve] | 3.26 µM [rising, partial curve]
O=C(COC(=O)C12CC3CC(CC(O)(C3)C1)C2)Nc1cccc(Br)c1 | 19.5 | – | –
COc1ccc(-c2cc(C(=O)NCCN3CCOCC3)c3ccccc3n2)cc1OC | 6.36 | 25.9 µM [rising, partial curve] | –
O=C(COc1ccc(Cl)cc1)NCc1ccncc1 | 3.01 | 6.51 µM [falling, single point] | 4.11 µM [falling, partial curve, poor fit]
CC(C)c1ccc(NC2CCCN(C(=O)c3ccc(N4CCOCC4)cc3)C2)cc1 (centres undefined) | 1.16 | – | 0.58 µM [rising, full curve, poor fit]
COc1cccc(/C(C)=N/N=C(\C)c2cccc(OC)c2)c1 | 16.1 | – | –
O=C(CCS(=O)(=O)c1ccccc1)Nc1ncc([N+](=O)[O-])s1 | – | 4.11 µM [falling, full curve] | –
CCN(c1ccccc1)S(=O)(=O)c1ccc(C(=O)N(CCCN(C)C)c2nc3cc4c(cc3s2)OCO4)cc1 | -23.8 | 5.8 µM [rising, single point] | –

# Further entries.

Compound,cell number change [%],AC50 [1],AC50 [2]
Cc1cnc(C(=O)OCC(=O)N2CCN(C(=O)c3ccco3)CC2)cn1,-1.35,–,–
O=C(CN1C(=O)NC2(CCc3ccccc32)C1=O)Nc1ccc(Br)cc1F (centres undefined),9.31,"0.00461 µM [rising, full curve, poor fit]",–
CCc1c(C)nc2ncnn2c1Nc1ccc(C#N)c(Cl)c1,-16.7,–,–
Fc1ccccc1CNC(=S)NCc1ccc(Cl)cc1,3.47,–,–
COc1cccc(NC(=O)CN2C(=O)CSc3nc(C)cc(C)c32)c1,8.36,"20.6 µM [rising, single point]",–
CN(Cc1ccccc1)C(=O)c1ccccc1C(=O)O,22.7,–,"0.116 µM [rising, full curve, poor fit]"
Oc1ccc(Br)cc1-c1cc(-c2ccco2)[nH]n1,-10.5,–,"0.651 µM [falling, single point]"
CCOc1ccc2nc(N3CCCC(C(=O)NC4CCCC4)C3)sc2c1 (centres undefined),4.58,–,–
O=c1c(-c2ccc(O)cc2)coc2cc(OC3OC(CO)C(O)C(O)C3O)ccc12 (centres undefined),-19.5,"4.11 µM [falling, full curve, poor fit]",–
CC(C)Oc1ccc(S(=O)(=O)N2CCOCC2)cc1NC(=O)c1cc([N+](=O)[O-])ccc1N1CCOCC1,–,"29.1 µM [rising, single point]",–
CCCCCOC(=O)C1=C(C)Nc2nnnn2C1c1ccccc1Cl (centres undefined),-81.5,"29.1 µM [falling, single point]","29.1 µM [falling, single point]"
CCOc1ccc(CN2CCC(n3nccc3NC(=O)c3ccccc3OC)CC2)cc1,3.96,–,"0.731 µM [rising, single point]"
Cc1c(C(=O)NC(C)C)oc2c1-c1[nH]ncc1CC2,-12.3,–,–
Cc1cccc(Nc2ncc3c(n2)CC(C)CC3=O)c1 (centres undefined),-37.9,–,"11.6 µM [falling, single point]"
O=C(NC1CCN(Cc2ccccc2)CC1)c1ccc(Cn2c(=S)[nH]c3ccc(N4CCOCC4)cc3c2=O)cc1,-41.3,"29.1 µM [falling, single point]","23.1 µM [falling, single point]"
COc1ccccc1NC(=O)C1CCCN1S(=O)(=O)c1ccc(Cl)cc1 (centres undefined),41,"29.1 µM [rising, single point]","20.6 µM [rising, single point]"
Cn1nc(C(=O)N2CCN(c3ccccn3)CC2)c2ccccc2c1=O,32.1,–,"5.8 µM [rising, single point]"
Cc1ccccc1OCC(=O)N(Cc1ccc(N(C)C)cc1)C1CCS(=O)(=O)C1 (centres undefined),-13.5,"0.82 µM [rising, single point]",–
O=C1NC(=S)N(c2cccc(Cl)c2)C12CCCCC2,5.03,"29.1 µM [rising, single point]",–
CC(C)(C)OC(=O)NCCCCCc1cn([C@@H](CO)C(=O)NCCCCCCCCCCC(=O)N2CCN(C(=O)OC(C)(C)C)CC2)nn1,-39.9,"6.51 µM [falling, single point]","8.2 µM [falling, full curve]"

# — PubChem BioAssay AID2685 (National Center for Advancing Translational Sciences (NCATS), 2010)
